In patent publication US20150110793A1:
Residue numbers refer to the chain shown, from its start. These are yes or no findings as the source states them, for the method shown. Some entries that bind do so weakly or less than the wild type.

T1: Human EREG (Biacore analyte) (human) (UniProt O14944)
T1 sequence: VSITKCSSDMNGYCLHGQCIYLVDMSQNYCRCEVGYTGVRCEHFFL

T2: soluble human EREG fragment having a mature EGF domain structure (R&D Systems, cat. no. 1195-EP/CF) (human) (UniProt O14944)
T2 sequence: T1 sequence

T3: EREG expressed on cells (SK-HEP-1 lines forced to express EREG: SKE-18, SKE-23, SKE-4B2, SKE-10, SKE-15, SKE1; host SK-HEP-1; DLD-1) (UniProt O14944)
T3 sequence (looked up): T1 sequence

B1: H111-G1d/LB-k (antibody, human IgG1, kappa, V domains shown)
VH: QDQLVQSGAEVKKPGASVKVSCKASGFNIKDTYIQWVRQAPGQGLEWMGRIDPLRGNTKYREKFEGRVTITADTSTNTAYMELSSLRSEDTAVYYCVRSGTLFDFWGQGTLVTVSS
VL: DIQMTQSPSSLSASVGDRVTITCKASQDIHKYIAWYQQKPGQAPRLLIQYTSTLQPGVPSRFSGSGSGTDYTFTISSLQPEDIATYYCLQYDNLRTFGGGTKVEIKR
B2: H121-G1d/LB-k (antibody, human IgG1, kappa, V domains shown)
VH: B1 VH with K63R
VL: B1 VL
B3: H123-G1d/LB-k (antibody, human IgG1, kappa, V domains shown)
VH: B1 VH with G66R
VL: B1 VL
B4: H132-G1d/LB-k (antibody, human IgG1, kappa, V domains shown)
VH: B1 VH with G56R, T101R
VL: B1 VL
B5: H111-G1d/L48-k (antibody, human IgG1, kappa, V domains shown)
VH: B1 VH
VL: B1 VL with L94R
B6: H116-G1d/LB-k (antibody, human IgG1, kappa, V domains shown)
VH: B1 VH with G56R
VL: B1 VL
B7: H117-G1d/LB-k (antibody, human IgG1, kappa, V domains shown)
VH: B1 VH with N57R
VL: B1 VL
B8: H118-G1d/LB-k (antibody, human IgG1, kappa, V domains shown)
VH: B1 VH with T58R
VL: B1 VL
B9: H120-G1d/LB-k (antibody, human IgG1, kappa, V domains shown)
VH: B1 VH with Y60R
VL: B1 VL
B10: HY-G1d/L20-k (antibody, human IgG1, kappa, V domains shown)
VH: B1 VH with R55N, R61V, E62P, E65Q
VL: B1 VL with K24Q, Q55E
B11: HY-G1d/L23-k (antibody, human IgG1, kappa, V domains shown)
VH: B1 VH with R55N, R61V, E62P, E65Q
VL: B1 VL with P56E
B12: mouse hybridoma-derived EP27 (antibody, V domains shown)
VH: EDQLQQSGAELVKPGASVKLSCTASGFNIKDTYIQWVKLRPEQGLEWIGRIDPLNGNTKYVPKFQGKATITADTSSNTAYLQLSSLTSEDTAVYYCVRSGTLFDFWGQGTTLTVSS
VL: DIQMTQSPSSLSASLGGKVTITCKASQDIHKYIAWYQHKPGKGPRLLIQYTSTLQPGIPSRFSGSGSGRDYSFSISNLEPEDIATYYCLQYDNLRTFGGGTKLEIK
B13: H112-G1d/LB-k (antibody, human IgG1, kappa, V domains shown)
VH: B1 VH with I51R
VL: B1 VL
B14: H119-G1d/LB-k (antibody, human IgG1, kappa, V domains shown)
VH: B1 VH with K59R
VL: B1 VL

Biological target: T1, Human EREG (Biacore analyte) (human)
Experiment: SPR (Biacore)

Question: B1 was tested. Which binding did it give?
Answer: binds

Question: How did the binding turn out when B2 was run?
Answer: binds

Question: B3 was tested. Which binding did it give?
Answer: binds

Question: B4 was tested. Which binding did it give?
Answer: binds

Question: For B5, which binding is on record?
Answer: binds

Question: With B6 as the binder, how does the binding read?
Answer: binds

Question: With B7 as the binder, how does the binding read?
Answer: binds

Question: How did the binding turn out when B8 was run?
Answer: binds

Question: Which binding does the source give for B9 here?
Answer: binds

Biological target: T2, soluble human EREG fragment having a mature EGF domain structure (R&D Systems, cat. no. 1195-EP/CF) (human)
Experiment: competitive ELISA

Question: For B10, which binding is on record?
Answer: binds

Question: Which binding does the source give for B11 here?
Answer: binds

Biological target: T3, EREG expressed on cells (SK-HEP-1 lines forced to express EREG: SKE-18, SKE-23, SKE-4B2, SKE-10, SKE-15, SKE1; host SK-HEP-1; DLD-1)
Experiment: immunohistochemical staining of xenograft tissue of EREG-expressing SK-HEP-1 lines

Question: B12 was tested. Which binding did it give?
Answer: binds

Biological target: T1, Human EREG (Biacore analyte) (human)
Experiment: SPR (Biacore T100, single-cycle kinetics), antibody captured on Protein A, human EREG as analyte; bar = KD of the antibody / KD of chimeric EP27

Question: With B1 as the binder, how does the binding read?
Answer: binds

Question: How did the binding turn out when B2 was run?
Answer: binds

Question: For B3, which binding is on record?
Answer: binds

Question: Which binding does the source give for B4 here?
Answer: binds

Question: How did the binding turn out when B5 was run?
Answer: binds

Question: For B6, which binding is on record?
Answer: binds

Question: With B7 as the binder, how does the binding read?
Answer: binds

Question: With B8 as the binder, how does the binding read?
Answer: binds

Question: How did the binding turn out when B9 was run?
Answer: binds

Biological target: T1, Human EREG (Biacore analyte) (human)
Experiment: SPR (Biacore T100, single-cycle kinetics), antibody captured on Protein A, human EREG as analyte; bar = KD of the antibody / KD of chimeric EP27 (cH-G1/cL-k)

Question: How did the binding turn out when B1 was run?
Answer: binds

Question: How did the binding turn out when B2 was run?
Answer: binds

Question: How did the binding turn out when B3 was run?
Answer: binds

Question: For B4, which binding is on record?
Answer: binds

Question: Which binding does the source give for B5 here?
Answer: binds

Question: Which binding does the source give for B6 here?
Answer: binds

Question: With B7 as the binder, how does the binding read?
Answer: binds

Question: B8 was tested. Which binding did it give?
Answer: binds

Question: B9 was tested. Which binding did it give?
Answer: binds

Question: B13 was tested. Which binding did it give?
Answer: binds

Question: With B14 as the binder, how does the binding read?
Answer: binds

Biological target: T3, EREG expressed on cells (SK-HEP-1 lines forced to express EREG: SKE-18, SKE-23, SKE-4B2, SKE-10, SKE-15, SKE1; host SK-HEP-1; DLD-1)
Experiment: flow cytometry of cells (FITC) and immunohistochemistry of transplanted tissue with the EP27 antibody as primary antibody; neither the legend nor Example 10 names the staining antibody of the histograms or says which histogram is the control; EP27 is the only staining antibody named in Example 10

Question: B12 was tested. Which binding did it give?
Answer: binds
